Assay results published in publication PMC3037350.
No constants are given. Whether binding was seen depends on the method and setting. A result given as binding can be weak or reduced; the word gives no strength.

Biological target: recombinant P. falciparum 3D7 AMA1 ectodomain (P. falciparum 3D7)
Test: ELISA; competitive ELISA: 1 µg/ml Pf3D7-AMA1 coated, 20 µg/ml Pf3D7-RON2-5, increasing concentrations of R1 or control peptide P8 pre-incubated for 15 min with recombinant protein; both purified

VFAEFLPLFSKFGSRMHILK [R1 peptide]
binding: binds
